Reference: PubChem BioAssay AID1347076 (National Center for Advancing Translational Sciences (NCATS), 2019)
About 13,000 (3.2%) of roughly 400,000 compounds were called active. Inconclusive means that the source gave no clear call. Such entries were picked first, then a sample of the others. Calls follow the shape of the dose curve; as a rule, active = well fitted cell-killing curve with a large enough effect; inconclusive = small, poorly fitted or top-dose-only effect, or effect the other way; inactive = flat fitted curve, though single readings scatter. Potencies beside an inconclusive call are fits to weak or partial responses and may not hold up.

assay: qHTS assay for MDR1-selective chemotherapeutics: Primary screen using the drug-selected MDR subline cells KB-V1; conditions: KB-V1 MDR cells viability, CellTiter-Glo, 72 h; activity change, negative = cytotoxicity: at 46.1 µM (top of the series); also: nearly all actives have a fitted effect of over 60% in size
Outline: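 KB-V1, DMEM (no phenol red) + 10% FBS; cpd pin-transferred, titration series; 72 h, 37 degrees C; CellTiter-Glo, luminescence. Data normalized, curve-fit.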
% is scaled to controls: 0 for no effect and ±100 for the full control effect; potency is read from the fitted curve at half-maximal effect.

| Compound | Potency | activity change, negative = cytotoxicity |
| --- | --- | --- |
| COc1cc(OC)cc(C(=O)Nc2ccccc2C(=O)NC2CC2)c1 | active: 6.51 µM |  |
| COC(=O)[C@]12CCCCC=C1N(Cc1ccccc1)C(=O)[C@H](CC(=O)NCCc1ccccc1OC)C2 | inconclusive: 9.2 µM [cytotoxic, partial curve] |  |
| COc1ccc(-n2nnnc2C(CCSC)N2CCN(C/C=C/c3ccccc3)CC2)cc1 (stereo not given) | inconclusive: 29.1 µM [cytotoxic, single point] |  |
| CCCCNC(=O)CO/N=C(\C)c1cc2ccccc2o1 | active: 16.4 µM |  |
| CCN1CCN(CCC(=O)Nc2cccc(C)c2)CC1 |  | inactive: 0% |
| COc1cccc(-c2cnc3c(NC=O)cc(-c4ccoc4)cn23)c1 | inconclusive: 9.2 µM [cytotoxic, single point] |  |
| Cc1cc(S(=O)(=O)N2CCN(CC(=O)N(C)Cc3ccccc3)CC2)ccc1Br | inconclusive: 7.31 µM [cytotoxic, partial curve] |  |
| O=C1CCCN1CCCNc1nc(NCc2ccccc2)nc2ccsc12 | inconclusive: 14.6 µM [cytotoxic, partial curve] |  |
| N#Cc1ccc(Oc2cc(C(F)(F)F)nc(-c3ccccn3)n2)cc1 | inconclusive: 3.66 µM [cytotoxic, full curve] |  |
| COc1cc(-c2noc(CCCC(=O)Nc3ccc(C(N)=O)cc3)n2)cc(OC)c1OC | inconclusive: 7.31 µM [rising, partial curve, poor fit] |  |
| O=C(O)C1CCCN(S(=O)(=O)c2ccccc2[N+](=O)[O-])C1 (stereo not given) | inconclusive: 29.1 µM [rising, single point] |  |
| CC(C)(C)NC(=O)CSc1nc(-c2ccc(F)cc2)cs1 | inconclusive: 13 µM [cytotoxic, partial curve] |  |
| Cc1ccc(C)c(S(=O)(=O)c2cnc(SCC(=O)Nc3ccc(F)cc3F)[nH]c2=O)c1 |  | inactive: 0.999% |
| CCc1ccc(NC(=O)CSc2nccn2C2CCCC2)cc1 |  | inactive: 6.16% |
| Cc1sc2nc(CN(Cc3cccs3)C(=O)NC3CCCCC3)[nH]c(=O)c2c1C | inconclusive: 32.6 µM [cytotoxic, single point] |  |
| COC(=O)c1ccc2c(c1)N(Cc1ccccc1F)C(=O)c1ccccc1S2=O (stereo not given) |  | inconclusive: -2.59% |
| CCOC(=O)c1c(S(=O)(=O)N2CCCC(C(=O)N3CCN(c4ccc(F)cc4)CC3)C2)c(C)n(C)c1C (stereo not given) |  | inactive: -10.5% |
| COc1ccc(CCNC(=O)Cn2nc(C)n3c(cc4occc43)c2=O)cc1OC |  | inactive: 5.65% |
| CCN(CC)CCNC(=O)C1CCCN(c2ncnc3onc(C)c23)C1 (stereo not given) |  | inactive: 15.7% |
| CCCCN(C)C(=O)c1sc(=O)n(Cc2ccc(Cl)c(Cl)c2)c1C | inconclusive: 14.6 µM [cytotoxic, partial curve] |  |
| CC1CCN(C(=O)CCNC(=O)Cn2cnc3sc4c(c3c2=O)CCCC4)CC1 | inconclusive: 29.1 µM [cytotoxic, single point] |  |
| O=c1cc(CSc2ccccn2)c2ccccc2[nH]1 | inconclusive: 8.2 µM [cytotoxic, partial curve, poor fit] |  |
| CCN(Cc1ccccc1)C(=O)C1CCN(C/C(C)=C/c2ccccc2)CC1 | inconclusive: 11.6 µM [cytotoxic, partial curve] |  |
| CC(C)(C)c1nc(NC(=O)Nc2ccccc2)sc1Br | inconclusive: 16.4 µM [cytotoxic, partial curve, poor fit] |  |

| Compound | Potency | activity change, negative = cytotoxicity |
| --- | --- | --- |
| Cc1ccc2c(C)c(C)c(=O)n(C)c2c1 | active: 14.6 µM |  |
| Cc1occc1C(=O)N/N=C/c1sc(N2CCOCC2)nc1-c1ccccc1 |  | inconclusive: -30.1% [cytotoxic] |
| CCN(CC)C(=O)C1=C(C)N(Cc2ccc(C(C)(C)C)cc2)C(=O)C(CC(=O)NCC2CCCCC2)C1 (stereo not given) | inconclusive: 23.1 µM [cytotoxic, single point] |  |
| CCNc1nc(NC(C)C)nc(N(C#N)CCOc2ccccc2)n1 | inconclusive: 23.1 µM [cytotoxic, single point] |  |
| O=C(Nc1ccc(F)cc1)c1oc2ccccc2c1NC(=O)C1CCCC1 | active: 13 µM |  |
| Cn1cc(S(=O)(=O)NCC2CCCO2)c(=O)n(C)c1=O (stereo not given) | inconclusive: 29.1 µM [rising, single point] |  |
| C[C@H]1CN(Cc2ccccc2)C(=O)[C@@H]1CC(=O)Nc1ccccc1 | inconclusive: 29.1 µM [cytotoxic, single point] |  |
| COc1ccc(NC(=O)CN(C)C(=O)c2cn(-c3ccccc3)nc2-c2ccc(OC)cc2)cc1 |  | inactive: -19.9% |
| O=C(NCc1ccc2c(c1)OCO2)c1nc(S(=O)(=O)Cc2ccccc2)ncc1Cl | inconclusive: 16.4 µM [cytotoxic, partial curve] |  |
| Cc1onc(-c2ccccc2)c1C(=O)N/N=C(\N)COc1ccc(Cl)cc1 | active: 14.6 µM |  |
| CCN(CC)c1ccc(/C=N/Nc2nc(C)cc(C)n2)c(O)c1 | inconclusive: 2.31 µM [cytotoxic, full curve] |  |
| COc1ccc(C(=O)C2CCCN(C(=O)c3cc4nc(C)cc(C)n4n3)C2)cc1F (stereo not given) | inconclusive: 29.1 µM [cytotoxic, single point] |  |
| Cc1oc(-c2cccc(Cl)c2)nc1CN1CCC(C(=O)NCCCN2CCN(c3cccc(Cl)c3)CC2)CC1 | inconclusive: 29.1 µM [cytotoxic, single point] |  |
| Cc1ccc(NC(=O)c2ccc(Cl)cc2[N+](=O)[O-])nc1 | inconclusive: 20.6 µM [cytotoxic, single point] |  |
| CC(C)CC(OC(=O)CC1Sc2ccccc2NC1=O)C(=O)NC1CCCC1 (stereo not given) | inconclusive: 9.2 µM [cytotoxic, partial curve] |  |
| N#Cc1cc2ccccc2nc1SCC(=O)Nc1ccccc1N1CCOCC1 | active: 4.61 µM |  |
| O=S(=O)(c1ccc(S(=O)(=O)N2CCCC2)cc1)N1CCCCCC1 |  | inactive: 7.16% |
| CN(C)C(=O)Cn1c(SCC(=O)Nc2ccc3c(c2)OCO3)nc2ccccc21 | inconclusive: 13 µM [cytotoxic, single point] |  |
| COc1cc(OC)cc(C(=O)NNC(=O)CNC(=O)c2cccs2)c1 | inconclusive: 20.6 µM [rising, single point] |  |
| CCCNC(=O)C1(C)CCN(Cc2ccc(Cl)c(Cl)c2)C1 (stereo not given) |  | inactive: 0% |
| CCCCNC(=O)c1[nH]c2ccccc2c1Sc1ccc(C)cc1 |  | inactive: 25.9% |
| COc1ccc(NS(=O)(=O)c2cccc(NC(=O)CCC(=O)c3cccs3)c2)cc1 |  | inactive: 0.549% |
| CCc1ccccc1NC(=O)CN1CCN(CC(=O)Nc2ccc3c(c2)OC2(CCCCC2)O3)CC1 |  | inactive: -1.15% |
| Cc1ccccc1OCCCCn1cnc2ccccc21 | inconclusive: 14.6 µM [cytotoxic, partial curve] |  |

Part of the list above in order of number of heavy atoms, largest number first.

| Compound | Potency | activity change, negative = cytotoxicity |
| --- | --- | --- |
| COc1ccc(NS(=O)(=O)c2cccc(NC(=O)CCC(=O)c3cccs3)c2)cc1 |  | inactive: 0.549% |
| CC(C)CC(OC(=O)CC1Sc2ccccc2NC1=O)C(=O)NC1CCCC1 (stereo not given) | inconclusive: 9.2 µM [cytotoxic, partial curve] |  |
| CCN(CC)c1ccc(/C=N/Nc2nc(C)cc(C)n2)c(O)c1 | inconclusive: 2.31 µM [cytotoxic, full curve] |  |
| Cn1cc(S(=O)(=O)NCC2CCCO2)c(=O)n(C)c1=O (stereo not given) | inconclusive: 29.1 µM [rising, single point] |  |
| O=c1cc(CSc2ccccn2)c2ccccc2[nH]1 | inconclusive: 8.2 µM [cytotoxic, partial curve, poor fit] |  |

The listing continues.

| Compound | Potency | activity change, negative = cytotoxicity |
| --- | --- | --- |
| COC(=O)c1c(NC(=O)c2c(-c3ccccc3Cl)noc2C)sc2c1CCC2 | inconclusive: 10 µM [cytotoxic, partial curve, poor fit] |  |
| CCCCCCCCc1c(O)nc(-n2[nH]c(C)c(CCO)c2=O)[nH]c1=O | inconclusive: 29.1 µM [rising, single point] |  |
| N#C/C(=C\c1cn(CC(=O)N2CCCCC2)c2ccccc12)C(=O)NCc1ccc2c(c1)OCO2 | active: 25.9 µM |  |
| CCOc1cc(/C=N/NC(=O)c2cc(-c3cccc(OC)c3)nc3ccccc23)ccc1O | inconclusive: 11.6 µM [cytotoxic, partial curve, poor fit] |  |
| Cc1c(-c2ccc(F)cc2)nc(N)c(C#N)c1-c1cccnc1 | inconclusive: 20.6 µM [cytotoxic, single point] |  |
| CC(C)N1C(=O)S/C(=C/c2ccc3c(c2)n(C)c(=O)n3C)C1=O | inconclusive: 16.4 µM [cytotoxic, single point] |  |
| Cc1ccc(NC(=O)c2cccc(S(=O)(=O)N3CCCCC3)c2)cc1 | inconclusive: 20.6 µM [cytotoxic, single point] |  |
| Cc1cccc(NC(=O)c2ccc3c(=O)n(CC4CCCO4)c(=S)[nH]c3c2)c1 (stereo not given) | inconclusive: 18.4 µM [cytotoxic, single point] |  |
| NC(=O)c1c(NC(=O)c2ccc([N+](=O)[O-])o2)sc2c1CCCC2 | inconclusive: 20.6 µM [cytotoxic, partial curve] |  |
| Cc1n[nH]c(C)c1NC(=O)CN1CCN(S(=O)(=O)c2ccc(C(F)(F)F)cc2)CC1 | inconclusive: 23.1 µM [rising, single point] |  |
| CC(C)N(Cc1nc(-c2ccccc2)no1)C(=O)COc1ccccc1 |  | inactive: 0% |
| CC1CN(CC(O)c2ccc(Br)cc2)CCO1 (stereo not given) |  | inactive: -3.58% |
| O=C(Nc1ccncc1)c1ccc(Cl)c(S(=O)(=O)N2CCCCC2)c1 | inconclusive: 25.9 µM [cytotoxic, single point] |  |
| O=C(OCCN1CCCCC1)c1cc2ccccc2o1 |  | inactive: -12.3% |
| O=C(NCCc1ccc(Cl)cc1)c1ccc(CSCc2ccccc2Cl)o1 |  | inactive: -11.3% |
| CC(=O)c1cccc(NC(=O)c2nc(-c3ccc(C)cc3)n3c2CCCCC3)c1 |  | inactive: -31.1% |
| Cc1cccc(NC(=O)C2CCCN(S(=O)(=O)c3cccc4nonc34)C2)c1 (stereo not given) | inconclusive: 29.1 µM [rising, single point] |  |
| CCOC(=O)CSc1nc(-c2ccncc2)ccc1C#N |  | inactive: 21.7% |
| CC(C)(C)c1ccc(/C=N/NC(=O)c2ccccn2)cc1 | inconclusive: 18.4 µM [cytotoxic, single point] |  |
| CSc1nc(-c2ccccc2)nc(SC)c1C(C)=O | inconclusive: 3.26 µM [cytotoxic, partial curve, poor fit] |  |
| O=C1c2ccc(-c3nc4ccccc4o3)cc2C(=O)N1Cc1cccnc1 |  | inactive: 11.1% |
| Cc1ccc(NC(=O)CSc2ccc(-c3cccnc3)nn2)c(C)c1 | inconclusive: 16.4 µM [cytotoxic, partial curve, poor fit] |  |
